From paper doi:10.1101/508887 come the findings set out here.

These are yes or no findings as the source states them, for the method shown. Binding seen in cells or lysates may run through a third protein. These calls come from enrichment with a bait or labelling near it, and not all partners need be listed. Tags and fused reporters may be left off the sequences shown.

The target of the assay is T1, KIF1C-BioID-3XFLAG (human) (UniProt O43896).
T1 sequence: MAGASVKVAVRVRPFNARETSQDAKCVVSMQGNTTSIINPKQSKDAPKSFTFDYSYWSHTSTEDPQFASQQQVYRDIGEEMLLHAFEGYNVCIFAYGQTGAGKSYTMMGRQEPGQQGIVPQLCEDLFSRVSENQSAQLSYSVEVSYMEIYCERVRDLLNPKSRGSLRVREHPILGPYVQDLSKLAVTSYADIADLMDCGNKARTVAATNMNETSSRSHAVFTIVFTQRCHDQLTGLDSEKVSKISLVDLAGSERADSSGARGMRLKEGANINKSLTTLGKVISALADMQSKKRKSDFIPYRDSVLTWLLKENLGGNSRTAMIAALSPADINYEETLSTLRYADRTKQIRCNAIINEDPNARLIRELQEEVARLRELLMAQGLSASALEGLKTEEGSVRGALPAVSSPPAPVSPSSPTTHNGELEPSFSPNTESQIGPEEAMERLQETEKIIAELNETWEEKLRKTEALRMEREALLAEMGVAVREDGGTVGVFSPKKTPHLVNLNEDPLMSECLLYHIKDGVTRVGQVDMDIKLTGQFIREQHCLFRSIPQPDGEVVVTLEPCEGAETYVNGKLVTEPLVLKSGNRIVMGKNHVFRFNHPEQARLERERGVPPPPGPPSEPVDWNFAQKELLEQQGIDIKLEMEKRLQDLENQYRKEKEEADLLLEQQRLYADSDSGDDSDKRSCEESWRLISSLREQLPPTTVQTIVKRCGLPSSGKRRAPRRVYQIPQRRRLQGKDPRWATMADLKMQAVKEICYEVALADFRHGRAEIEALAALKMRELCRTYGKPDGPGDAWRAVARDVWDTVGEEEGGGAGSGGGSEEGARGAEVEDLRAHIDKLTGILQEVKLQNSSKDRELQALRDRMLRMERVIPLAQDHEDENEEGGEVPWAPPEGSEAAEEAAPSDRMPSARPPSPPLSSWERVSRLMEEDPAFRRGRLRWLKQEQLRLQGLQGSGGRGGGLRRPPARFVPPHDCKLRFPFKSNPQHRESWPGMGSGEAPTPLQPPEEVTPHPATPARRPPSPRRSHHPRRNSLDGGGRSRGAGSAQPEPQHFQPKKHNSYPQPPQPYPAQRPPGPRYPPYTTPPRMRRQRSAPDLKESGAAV
The assay is described as follows: proximity labelling.

B1: HOOK3 (endogenous) (protein, UniProt Q86VS8 1-718)
chain: MFSVESLERAELCESLLTWIQTFNVDAPCQTVEDLTNGVVMAQVLQKIDPAYFDENWLNRIKTEVGDNWRLKISNLKKILKGILDYNHEILGQQINDFTLPDVNLIGEHSDAAELGRMLQLILGCAVNCEQKQEYIQAIMMMEESVQHVVMTAIQELMSKESPVSAGNDAYVDLDRQLKKTTEELNEALSAKEEIAQRCHELDMQVAALQEEKSSLLAENQVLMERLNQSDSIEDPNSPAGRRHLQLQTQLEQLQEETFRLEAAKDDYRIRCEELEKEISELRQQNDELTTLADEAQSLKDEIDVLRHSSDKVSKLEGQVESYKKKLEDLGDLRRQVKLLEEKNTMYMQNTVSLEEELRKANAARSQLETYKRQVVELQNRLSEESKKADKLDFEYKRLKEKVDSLQKEKDRLRTERDSLKETIEELRCVQAQEGQLTTQGLMPLGSQESSDSLAAEIVTPEIREKLIRLQHENKMLKLNQEGSDNEKIALLQSLLDDANLRKNELETENRLVNQRLLEVQSQVEELQKSLQDQGSKAEDSVLLKKKLEEHLEKLHEANNELQKKRAIIEDLEPRFNNSSLKIEELQEALRKKEEEMKQMEERYKKYLEKAKSVIRTLDPKQNQGAAPEIQALKNQLQERDRLFHSLEKEYEKTKSQREMEEKYIVSAWYNMGMTLHKKAAEDRLASTGSGQSFLARQRQATSSRRSYPGHVQPATAR
For B1, the binding result is reported as “binds”.
